Results reported in the supplement of paper PMC10331698.
± gives the standard deviation of the averaged measurements. Small differences around the control level are noise.

Key:
Test in all cases: level (log10 ratio to DMSO vehicle control); higher = higher biomarker level / cell amount than vehicle control
Tetrafluorosuccinic acid = compound: O=C(O)C(F)(F)C(F)(F)C(=O)O [Tetrafluorosuccinic acid]; conditions: 2200 nM; in DMSO
Procedure: (§1)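 BioMAP Diversity Plus panel of 12 human primary cell co-culture systems (3C, 4H, LPS, SAg, BT, BF4T, BE3C, CASM3C, HDF3CGF, KF3CT, MyoF, Mphg). Compounds were added 1 h before stimulation and left for 24 h (MyoF 48 h; BT 72 h for soluble read-outs or 6 d for IgG). Biomarkers were read by ELISA, cytotoxicity by SRB, PBMC viability and proliferation by Alamar Blue. Each well value was divided by the mean of 8 DMSO control wells on the same plate and log10 transformed; duplicate blinded samples were tested at 4 concentrations.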

[1] = compound: O=C(O)CCC(F)(F)C(F)(F)C(F)(F)C(F)(F)C(F)(F)F [2H,2H,3H,3H-Perfluorooctanoic acid]; conditions: 2200 nM; in DMSO
Procedure: as §1

[2] = compound: O=S(=O)(O)C(F)(F)C(F)(F)OC(F)(F)C(F)(F)F [Perfluoro(2-ethoxyethane)sulfonic acid]; conditions: 2200 nM; in DMSO
Procedure: as §1

[3] = compound: NS(=O)(=O)C(F)(F)C(F)(F)C(F)(F)C(F)(F)C(F)(F)C(F)(F)F [Perfluorohexanesulfonamide]; conditions: 2200 nM; in DMSO
Procedure: as §1

[4] = compound: COC(=O)CCC(F)(F)C(F)(F)C(F)(F)C(F)(F)F [Methyl 2H,2H,3H,3H-perfluoroheptanoate]; conditions: 2200 nM; in DMSO
Procedure: as §1

Nonafluoropentanamide = compound: NC(=O)C(F)(F)C(F)(F)C(F)(F)C(F)(F)F [Nonafluoropentanamide]; conditions: 2200 nM; in DMSO
Procedure: as §1

[5] = compound: C=C(C)C(=O)OCCC(F)(F)C(F)(F)C(F)(F)C(F)(F)C(F)(C(F)(F)F)C(F)(F)F [(Perfluoro-5-methylhexyl)ethyl 2-methylprop-2-enoate]; conditions: in DMSO
Procedure: as §1

[6] = compound: O=S(=O)(O)CCC(F)(F)C(F)(F)C(F)(F)C(F)(F)C(F)(F)C(F)(F)F [6:2 Fluorotelomer sulfonic acid]; conditions: in DMSO
Procedure: as §1

[7] = compound: FC(F)(F)C(F)(F)C(F)(F)C(F)(F)C(F)(F)CCI [1-Iodo-1H,1H,2H,2H-perfluoroheptane]; conditions: 2200 nM; in DMSO
Procedure: as §1

[8] = compound: O=C(O)C(F)(F)C(F)(F)C(F)(F)C(F)(F)C(F)(F)C(F)(F)C(F)(F)C(F)(F)Cl [9-Chloro-perfluorononanoic acid]; conditions: in DMSO
Procedure: as §1

Perfluoropinacol = compound: OC(C(F)(F)F)(C(F)(F)F)C(O)(C(F)(F)F)C(F)(F)F [Perfluoropinacol]; conditions: in DMSO
Procedure: as §1

[9] = compound: OCCC(F)(F)C(F)(F)C(F)(F)C(F)(F)F [4:2 Fluorotelomer alcohol]; conditions: 2200 nM; in DMSO
Procedure: as §1

Octafluoroadipamide = compound: NC(=O)C(F)(F)C(F)(F)C(F)(F)C(F)(F)C(N)=O [Octafluoroadipamide]; conditions: 2200 nM; in DMSO
Procedure: as §1

[10] = compound: C=C(C)C(=O)OCCC(F)(F)C(F)(F)C(F)(F)C(F)(F)C(F)(F)C(F)(F)C(F)(F)C(F)(F)F [8:2 Fluorotelomer methacrylate]; conditions: in DMSO
Procedure: as §1

Test System | level (log10) (Tetrafluorosuccinic acid) | level (log10) [1] | level (log10) [2] | level (log10) [3] | level (log10) [4] | level (log10) (Nonafluoropentanamide) | level (log10) ([5]; 740 nM) | level (log10) ([5]; 2200 nM) | level (log10) ([5]; 6700 nM) | level (log10) ([5]; 20000 nM) | level (log10) ([6]; 2200 nM) | level (log10) ([6]; 6700 nM) | level (log10) ([6]; 20000 nM) | level (log10) ([6]; 60000 nM) | level (log10) [7] | level (log10) ([8]; 2200 nM) | level (log10) ([8]; 6700 nM) | level (log10) ([8]; 20000 nM) | level (log10) (Perfluoropinacol; 2200 nM) | level (log10) (Perfluoropinacol; 6700 nM) | level (log10) (Perfluoropinacol; 20000 nM) | level (log10) [9] | level (log10) (Octafluoroadipamide) | level (log10) ([10]; 740 nM) | level (log10) ([10]; 2200 nM)
lMphg:CD62E/E-Selectin | -0.019 ± 0.089 | 0.003 ± 0.025 | -0.012 ± 0.011 | -0.0065 ± 0.033 | -0.019 ± 0.016 | 0.0235 ± 0.033 | 0.0175 ± 0.013 | 0.0235 ± 0.005 | -0.0135 ± 0.011 | -0.01 ± 0.017 | -0.013 ± 0.045 | -0.0225 ± 0.018 | -0.039 ± 0.0071 | 0 ± 0.023 | -0.027 ± 0.027 | -0.0295 ± 0.005 | 0.01 ± 0.0099 | 0.017 ± 0.0042 | 0.0225 ± 0.035 | 0.0515 ± 0.013 | -0.139 ± 0.018 | -0.0075 ± 0.042 | 0.012 ± 0.0071 | -0.028 ± 0.0014 | -0.0145 ± 0.052
CASM3C:CD106/VCAM-1 | 0.0115 ± 0.0021 | -0.0085 ± 0.005 | 0.003 ± 0.011 | -0.0135 ± 0.018 | -0.0195 ± 0.005 | -0.013 ± 0.02 | -0.021 ± 0.018 | -0.018 ± 0.025 | -0.017 ± 0.014 | -0.0175 ± 0.026 | -0.016 ± 0.023 | -0.008 ± 0.011 | -0.0325 ± 0.022 | -0.0605 ± 0.026 | 0.003 ± 0.023 | -0.014 ± 0.0028 | -0.029 ± 0.0014 | -0.027 ± 0.016 | -0.0065 ± 0.019 | -0.028 ± 0.0042 | -0.0385 ± 0.015 | 0.01 ± 0.0099 | -0.0025 ± 0.047 | 0.007 ± 0.051 | 0.0095 ± 0.028
HDF3CGF:CXCL8/IL-8 | 0.0035 ± 0.011 | -0.003 ± 0.0071 | -0.0025 ± 0.013 | -0.001 ± 0.0042 | -0.0025 ± 0.022 | -0.002 ± 0.0014 | -0.0065 ± 0.0092 | -0.0055 ± 0.0021 | -0.004 ± 0.0042 | 0.0025 ± 0.005 | 0.001 ± 0.013 | -0.01 ± 0.014 | -0.007 ± 0.013 | 0.008 ± 0.037 | -0.0015 ± 0.012 | -0.002 ± 0.013 | -0.0225 ± 0.011 | 0.0015 ± 0.005 | 0.0125 ± 0.0035 | 0.025 ± 0.0071 | 0.02 ± 0.0028 | 0.0025 ± 0.0021 | 0.009 ± 0.021 | 0.0065 ± 0.021 | -0.0235 ± 0.021
BT:sIL-17A | 0.0005 ± 0.11 | -0.0995 ± 0.019 | -0.037 ± 0.09 | -0.161 ± 0.03 | 0.0415 ± 0.052 | -0.0305 ± 0.14 | -0.0085 ± 0.26 | -0.04 ± 0.1 | -0.19 ± 0.31 | -0.015 ± 0.15 | -0.0545 ± 0.071 | -0.135 ± 0.05 | -0.005 ± 0.081 | -0.126 ± 0.21 | -0.0815 ± 0.26 | -0.0215 ± 0.098 | 0.015 ± 0.054 | 0.008 ± 0.047 | -0.0905 ± 0.018 | -0.177 ± 0.11 | -0.642 ± 0.061 | -0.03 ± 0.15 | -0.0675 ± 0.064 | 0.0435 ± 0.14 | 0.12 ± 0.17
